According to doi:10.1101/2023.07.11.548601:
Where two headings read alike, the source gives them in different places. Results are given in words; binding and its absence hold for the method and conditions named. In cells and extracts the contact can be indirect. Some results given as binding are weak or reduced against the parent protein; the word gives no strength. For some of these results: Sequences can lack the tags named with a protein.

Chains of the proteins cited; added tags and fusions are not shown.
UniProt Q9D5V5: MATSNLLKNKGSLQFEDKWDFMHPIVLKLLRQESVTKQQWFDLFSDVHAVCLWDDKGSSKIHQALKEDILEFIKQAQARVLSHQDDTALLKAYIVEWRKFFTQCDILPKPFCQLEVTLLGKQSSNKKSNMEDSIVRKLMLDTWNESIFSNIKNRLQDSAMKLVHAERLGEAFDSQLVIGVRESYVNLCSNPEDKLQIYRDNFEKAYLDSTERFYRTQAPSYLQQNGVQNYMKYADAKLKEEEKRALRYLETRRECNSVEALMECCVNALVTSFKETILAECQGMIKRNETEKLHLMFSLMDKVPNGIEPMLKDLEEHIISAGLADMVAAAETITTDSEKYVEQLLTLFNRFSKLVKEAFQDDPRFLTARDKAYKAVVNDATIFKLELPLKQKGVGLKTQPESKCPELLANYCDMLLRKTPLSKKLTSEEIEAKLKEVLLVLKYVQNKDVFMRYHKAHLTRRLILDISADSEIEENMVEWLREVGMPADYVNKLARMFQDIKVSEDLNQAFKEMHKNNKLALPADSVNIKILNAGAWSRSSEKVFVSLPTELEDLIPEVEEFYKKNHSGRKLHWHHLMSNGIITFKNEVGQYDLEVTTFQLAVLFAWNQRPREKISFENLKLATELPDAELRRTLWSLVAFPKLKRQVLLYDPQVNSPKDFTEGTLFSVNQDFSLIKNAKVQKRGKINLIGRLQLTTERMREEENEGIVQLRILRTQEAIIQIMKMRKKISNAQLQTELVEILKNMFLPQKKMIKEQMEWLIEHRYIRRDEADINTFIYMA
UniProt Q9DCC8: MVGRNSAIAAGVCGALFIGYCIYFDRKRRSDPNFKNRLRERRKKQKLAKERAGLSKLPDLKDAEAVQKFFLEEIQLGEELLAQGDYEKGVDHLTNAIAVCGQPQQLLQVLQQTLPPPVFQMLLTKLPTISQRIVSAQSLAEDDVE

B1: Slc25A4 (protein, UniProt P48962 1-298)
chain: MGDQALSFLKDFLAGGIAAAVSKTAVAPIERVKLLLQVQHASKQISAEKQYKGIIDCVVRIPKEQGFLSFWRGNLANVIRYFPTQALNFAFKDKYKQIFLGGVDRHKQFWRYFAGNLASGGAAGATSLCFVYPLDFARTRLAADVGKGSSQREFNGLGDCLTKIFKSDGLKGLYQGFSVSVQGIIIYRAAYFGVYDTAKGMLPDPKNVHIIVSWMIAQSVTAVAGLVSYPFDTVRRRMMMQSGRKGADIMYTGTLDCWRKIAKDEGANAFFKGAWSNVLRGMGGAFVLVLYDEIKKYV
B2: Ozz (endogenous) (protein, UniProt Q9D0S4 1-285)
chain: MADPSEHVGLGGPRSPARPEPPPTRFHQVHGANIRMDPSGTRATRVESFAHGVCFSREPLAPGQVFLVEIEEKELGWCGHLRLGLTALDPASLAAVPEFSLPDLVSLGHSWVFAITRHHNRVPREGQPEAEAAVPSGPQALLVEPYLRIEQFRIPRDRLVGRSRPGLYSHLLDQLYEQNVLPPTARRSRLGVLFCPREDGTADMHIIINGEDMGPSARGLPAAQPLYAVVDVFASTKSVRLVQLEYGLPSLQTLCRLVIHKRVVHRLAIDVLHLPKGLKDFCKYE

Tests used:
[1] = molecular target: T1, biotinylated Avi-Ozz (recombinant Ozz fused to an Avi-tag) (UniProt Q9D0S4); assay: pull-down
T1 sequence (chain, biotin on the Avi-tag (biotinylated by the coexpressed bacterial ligase BirA)): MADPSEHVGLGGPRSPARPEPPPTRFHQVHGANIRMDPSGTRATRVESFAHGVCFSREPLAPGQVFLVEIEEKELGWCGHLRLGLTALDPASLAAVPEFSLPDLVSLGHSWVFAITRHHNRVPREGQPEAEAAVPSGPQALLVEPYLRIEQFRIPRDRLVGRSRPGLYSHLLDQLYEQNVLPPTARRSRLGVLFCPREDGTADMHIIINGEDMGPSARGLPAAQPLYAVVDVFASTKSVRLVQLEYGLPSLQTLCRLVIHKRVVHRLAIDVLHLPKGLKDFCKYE

[2] = molecular target: T1, biotinylated Avi-Ozz (recombinant Ozz fused to an Avi-tag); assay: pull-down; remark: listed apart in the source
[3] = molecular target: T2, N-terminal FLAG-tagged full-length Alix (UniProt Q9WU78); assay: co-IP
T2 sequence: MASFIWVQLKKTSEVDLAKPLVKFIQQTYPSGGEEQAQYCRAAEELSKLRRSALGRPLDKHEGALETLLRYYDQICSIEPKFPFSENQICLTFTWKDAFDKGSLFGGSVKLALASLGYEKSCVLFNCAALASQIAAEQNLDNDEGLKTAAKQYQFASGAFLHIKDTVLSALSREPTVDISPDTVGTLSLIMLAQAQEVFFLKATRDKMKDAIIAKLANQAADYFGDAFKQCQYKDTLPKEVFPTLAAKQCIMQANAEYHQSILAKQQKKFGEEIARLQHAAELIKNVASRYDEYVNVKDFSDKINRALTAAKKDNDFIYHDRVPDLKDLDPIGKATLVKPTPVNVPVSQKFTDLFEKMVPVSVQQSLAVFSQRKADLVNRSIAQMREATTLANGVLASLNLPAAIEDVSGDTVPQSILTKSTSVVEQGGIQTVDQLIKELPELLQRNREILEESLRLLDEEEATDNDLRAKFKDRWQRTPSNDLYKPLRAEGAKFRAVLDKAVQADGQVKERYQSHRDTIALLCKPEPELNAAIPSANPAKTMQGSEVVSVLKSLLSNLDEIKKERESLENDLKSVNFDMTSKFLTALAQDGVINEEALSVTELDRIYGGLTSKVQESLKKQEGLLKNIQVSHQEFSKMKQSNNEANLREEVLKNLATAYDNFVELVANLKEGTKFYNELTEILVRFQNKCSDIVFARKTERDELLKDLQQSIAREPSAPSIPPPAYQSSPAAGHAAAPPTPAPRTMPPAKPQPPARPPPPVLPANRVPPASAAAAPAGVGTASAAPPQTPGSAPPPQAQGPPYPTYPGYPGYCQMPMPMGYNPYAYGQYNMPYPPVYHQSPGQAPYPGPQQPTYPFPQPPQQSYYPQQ

[4] = molecular target: T2, N-terminal FLAG-tagged full-length Alix; assay: co-IP; remark: listed apart in the source
[5] = molecular target: T3, Slc25A4 (mouse (endogenous in C2C12 and in mouse muscle)) (UniProt P48962); assay: co-IP
T3 sequence: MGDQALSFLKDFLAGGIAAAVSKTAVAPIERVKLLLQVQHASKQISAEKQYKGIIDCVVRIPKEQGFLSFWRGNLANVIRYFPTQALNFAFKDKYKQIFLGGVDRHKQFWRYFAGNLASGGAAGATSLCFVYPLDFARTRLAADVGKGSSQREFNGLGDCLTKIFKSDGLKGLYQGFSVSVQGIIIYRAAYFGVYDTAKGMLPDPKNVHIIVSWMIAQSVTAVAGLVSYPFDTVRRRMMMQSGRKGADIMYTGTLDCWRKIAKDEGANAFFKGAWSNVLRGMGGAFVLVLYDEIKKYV

| Molecule | binding [1] | binding [2] | binding [3] | binding [4] | binding [5] |
| --- | --- | --- | --- | --- | --- |
| Cul5 (from UniProt Q9D5V5 1-780) | binds | binds | – | – | – |
| Tom20 (from UniProt Q9DCC8 1-145) | – | binds | binds | – | – |
| B1 | – | binds | – | binds | – |
| B2 | – | – | – | – | binds |
